The target of series [1] is biotinylated human glucagon (Homo sapiens) (UniProt P01275). In words: competition with a labelled probe. The settings on record: L-DNA, synthetic protein, mirror-image nucleic acid.
The target of another series is T1, human C5a (Homo sapiens) (UniProt P01031).
T1 sequence: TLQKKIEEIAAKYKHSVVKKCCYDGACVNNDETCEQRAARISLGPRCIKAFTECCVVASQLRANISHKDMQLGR
Put plainly: SPR. The settings on record: L-RNA, purified recombinant protein, protein details: Sigma Aldrich.

By UniProt entry, the sequences of proteins in these tests, tags left out. Residues count along the entry.
UniProt P01275, 53-81: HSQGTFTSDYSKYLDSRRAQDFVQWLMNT

For at least one entry, the source does not settle the construct or the ends of the probe. A weaker result is weaker than the reference pair of the same experiment. For some assays here: Where a protein sequence is shown, tags need not be part of it.

With “GCAGTGGGGAAATGGGAGGGCTAGGTGGAAGGAATCTGAGCTACTGC [257-E1-6xR-001]”, in series [1] (rG at 9, 15, 18, 19, rA at 29, 30, better than R15/29 and R15/18/29/30, variant of 257-E1-001), the binding result is reported as “binds”. As for “GCAGTGGGGAAATGGGAGGGCTAGGTGGAAGGAATCTGAGCTACTGC [257-E1-R1-001]”, the binding result in series [1] (rG at 1, reduced or lost binding vs parent, variant of 257-E1-001) is recorded as “binds more weakly”.

On to “GCAGTGGGGAAATGGGAGGGCTAGGTGGAAGGAATCTGAGCTACTGC [257-E1-R2-001]”, for which the binding result in series [1] (rC at 2, reduced or lost binding vs parent, variant of 257-E1-001) was “binds more weakly”. Regarding “GCAGTGGGGAAATGGGAGGGCTAGGTGGAAGGAATCTGAGCTACTGC [257-E1-R3-001]”, in series [1] (rA at 3, reduced or lost binding vs parent, variant of 257-E1-001), the binding result is listed as “binds more weakly”. For “GCAGTGGGGAAATGGGAGGGCTAGGTGGAAGGAATCTGAGCTACTGC [257-E1-R4-001]”, the binding result in series [1] (ribo at 4, printed as 257-E4-R1-001 (position 4), reduced or lost, 37 C, 1 mM Mg, 1 mM Ca, synthetic backbone) was “binds more weakly”. With “GCAGTGGGGAAATGGGAGGGCTAGGTGGAAGGAATCTGAGCTACTGC [257-E1-R6-001]”, the binding result in series [1] (rG at 6, reduced or lost binding vs parent, variant of 257-E1-001) is listed as “binds more weakly”. Regarding “GCAGTGGGGAAATGGGAGGGCTAGGTGGAAGGAATCTGAGCTACTGC [257-E1-R7-001]”, in series [1] (rG at 7, reduced or lost binding vs parent, variant of 257-E1-001), the binding result is reported as “binds more weakly”. Turning to “GCCUGAUGUGGUGGUGAAGGGUUGUUGGGUGUCGACGCACAGGC [NOX-D19001-D16]”, the binding result in the series with human C5a (Homo sapiens) (dG at 16, improved vs parent, amine-coupled for SPR, mirror-image nucleic acid, variant of NOX-D19001) is listed as “binds”. As for “GCCUGAUGUGGUGGUGAAGGGUUGUUGGGUGUCGACGCACAGGC [NOX-D19001-D17]”, in the series with human C5a (Homo sapiens) (dA at 17, improved vs parent, amine-coupled for SPR, mirror-image nucleic acid, variant of NOX-D19001), the binding result was “binds”. As for “GCCUGAUGUGGUGGUGAAGGGUUGUUGGGUGUCGACGCACAGGC [NOX-D19001-D18]”, the binding result with human C5a (Homo sapiens) (2'-deoxy at 18, reduced or lost vs parent, 37 C, amine coupled to CM5 chip, synthetic backbone, mirror-image nucleic acid) is reported as “binds more weakly”. Turning to “GCCUGAUGUGGUGGUGAAGGGUUGUUGGGUGUCGACGCACAGGC [NOX-D19001-D19]”, the binding result in the series with human C5a (Homo sapiens) (2'-deoxy at 19, reduced or lost vs parent, 37 C, amine coupled to CM5 chip, synthetic backbone, mirror-image nucleic acid) is on record as “binds more weakly”. In the case of “GCCUGAUGUGGUGGUGAAGGGUUGUUGGGUGUCGACGCACAGGC [NOX-D19001-D20]”, the binding result with human C5a (Homo sapiens) (2'-deoxy at 20, reduced or lost vs parent, 37 C, amine coupled to CM5 chip, synthetic backbone, mirror-image nucleic acid) was “binds more weakly”. Consider “GCCUGAUGUGGUGGUGAAGGGUUGUUGGGUGUCGACGCACAGGC [NOX-D19001-D21]”, for which the binding result with human C5a (Homo sapiens) (2'-deoxy at 21, reduced or lost vs parent, 37 C, amine coupled to CM5 chip, synthetic backbone, mirror-image nucleic acid) is given as “binds more weakly”. As to “GCCUGAUGUGGUGGUGAAGGGUUGUUGGGUGUCGACGCACAGGC [NOX-D19001-D22]”, in the series with human C5a (Homo sapiens) (dU at 22, improved vs parent, 37 C, amine coupled to CM5 chip, synthetic backbone, mirror-image nucleic …), the binding result is “binds”. On to “GCCUGAUGUGGUGGUGAAGGGUUGUUGGGUGUCGACGCACAGGC [NOX-D19001-D23]”, for which, in the series with human C5a (Homo sapiens) (dU at 23, unchanged vs parent, 37 C, amine coupled to CM5 chip, synthetic backbone, mirror-image nucleic acid), the binding result is listed as “binds”. “GCCUGAUGUGGUGGUGAAGGGUUGUUGGGUGUCGACGCACAGGC [NOX-D19001-D24]”: in the series with human C5a (Homo sapiens) (2'-deoxy at 24, reduced or lost vs parent, 37 C, amine coupled to CM5 chip, synthetic backbone, mirror-image nucleic acid), the binding result is “binds more weakly”. Turning to “GCCUGAUGUGGUGGUGAAGGGUUGUUGGGUGUCGACGCACAGGC [NOX-D19001-D25]”, the binding result with human C5a (Homo sapiens) (dU at 25, improved vs parent, 37 C, amine coupled to CM5 chip, synthetic backbone, mirror-image nucleic …) is “binds”. Regarding “GCCUGAUGUGGUGGUGAAGGGUUGUUGGGUGUCGACGCACAGGC [NOX-D19001-D26]”, in the series with human C5a (Homo sapiens) (dU at 26, unchanged vs parent, 37 C, amine coupled to CM5 chip, synthetic backbone, mirror-image nucleic acid), the binding result is on record as “binds”. With “GCCUGAUGUGGUGGUGAAGGGUUGUUGGGUGUCGACGCACAGGC [NOX-D19001-D27]”, the binding result with human C5a (Homo sapiens) (2'-deoxy at 27, reduced or lost vs parent, 37 C, amine coupled to CM5 chip, synthetic backbone, mirror-image nucleic acid) is “binds more weakly”. “GCCUGAUGUGGUGGUGAAGGGUUGUUGGGUGUCGACGCACAGGC [NOX-D19001-D28]”: the binding result with human C5a (Homo sapiens) (2'-deoxy at 28, reduced or lost vs parent, 37 C, amine coupled to CM5 chip, synthetic backbone, mirror-image nucleic acid) is “binds more weakly”.

With “GCCUGAUGUGGUGGUGAAGGGUUGUUGGGUGUCGACGCACAGGC [NOX-D19001-D29]”, the binding result with human C5a (Homo sapiens) (2'-deoxy at 29, improved vs parent, 37 C, amine coupled to CM5 chip, synthetic backbone, mirror-image nucleic …) is “binds”. Regarding “GCCUGAUGUGGUGGUGAAGGGUUGUUGGGUGUCGACGCACAGGC [NOX-D19001-D30-32]”, the binding result with human C5a (Homo sapiens) (dU at 30, 32, better than single substitutions, amine-coupled for SPR, mirror-image nucleic acid, variant of NOX-D19001) is on record as “binds”. In the case of “GCCUGAUGUGGUGGUGAAGGGUUGUUGGGUGUCGACGCACAGGC [NOX-D19001-D30-40]”, the binding result with human C5a (Homo sapiens) (dU at 30, dC at 40, better than single substitutions, amine-coupled for SPR, mirror-image nucleic acid, variant of NOX-D19001) was “binds”. Regarding “GCCUGAUGUGGUGGUGAAGGGUUGUUGGGUGUCGACGCACAGGC [NOX-D19001-D30]”, in the series with human C5a (Homo sapiens) (dU at 30, improved vs parent, amine-coupled for SPR, mirror-image nucleic acid, variant of NOX-D19001), the binding result is “binds”. On to “GCCUGAUGUGGUGGUGAAGGGUUGUUGGGUGUCGACGCACAGGC [NOX-D19001-D31]”, for which, in the series with human C5a (Homo sapiens) (2'-deoxy at 31, reduced or lost vs parent, 37 C, amine coupled to CM5 chip, synthetic backbone, mirror-image nucleic acid), the binding result was “binds more weakly”. Consider “GCCUGAUGUGGUGGUGAAGGGUUGUUGGGUGUCGACGCACAGGC [NOX-D19001-D32-40]”, for which, in the series with human C5a (Homo sapiens) (dU at 32, dC at 40, better than single substitutions, amine-coupled for SPR, mirror-image nucleic acid, variant of NOX-D19001), the binding result was “binds”.

Take “GCCUGAUGUGGUGGUGAAGGGUUGUUGGGUGUCGACGCACAGGC [NOX-D19001-D32]”: the binding result with human C5a (Homo sapiens) (dU at 32, improved vs parent, amine-coupled for SPR, mirror-image nucleic acid, variant of NOX-D19001) is recorded as “binds”. With “GCCUGAUGUGGUGGUGAAGGGUUGUUGGGUGUCGACGCACAGGC [NOX-D19001-D33]”, the binding result in the series with human C5a (Homo sapiens) (2'-deoxy at 33, reduced or lost vs parent, 37 C, amine coupled to CM5 chip, synthetic backbone, mirror-image nucleic acid) is given as “binds more weakly”. On to “GCCUGAUGUGGUGGUGAAGGGUUGUUGGGUGUCGACGCACAGGC [NOX-D19001-D34]”, for which, in the series with human C5a (Homo sapiens) (2'-deoxy at 34, reduced or lost vs parent, 37 C, amine coupled to CM5 chip, synthetic backbone, mirror-image nucleic acid), the binding result is recorded as “binds more weakly”. With “GCCUGAUGUGGUGGUGAAGGGUUGUUGGGUGUCGACGCACAGGC [NOX-D19001-D35]”, the binding result in the series with human C5a (Homo sapiens) (2'-deoxy at 35, listed as unchanged, also stated as improved, 37 C, amine coupled to CM5 chip, synthetic backbone, mirror-image nucleic acid) is reported as “binds”. For “GCCUGAUGUGGUGGUGAAGGGUUGUUGGGUGUCGACGCACAGGC [NOX-D19001-D36]”, in the series with human C5a (Homo sapiens) (2'-deoxy at 36, reduced or lost vs parent, 37 C, amine coupled to CM5 chip, synthetic backbone, mirror-image nucleic acid), the binding result is recorded as “binds more weakly”. Regarding “GCCUGAUGUGGUGGUGAAGGGUUGUUGGGUGUCGACGCACAGGC [NOX-D19001-D38]”, in the series with human C5a (Homo sapiens) (2'-deoxy at 38, unchanged vs parent, also listed as reduced in p388, 37 C, amine coupled to CM5 chip, synthetic backbone, mirror-image nucleic acid), the binding result is on record as “binds”.

In the case of “GCCUGAUGUGGUGGUGAAGGGUUGUUGGGUGUCGACGCACAGGC [NOX-D19001-D39]”, the binding result with human C5a (Homo sapiens) (2'-deoxy at 39, unchanged vs parent, 37 C, amine coupled to CM5 chip, synthetic backbone, mirror-image nucleic acid) is recorded as “binds”. For the sequence “GCCUGAUGUGGUGGUGAAGGGUUGUUGGGUGUCGACGCACAGGC [NOX-D19001-D40]”, the binding result with human C5a (Homo sapiens) (dC at 40, improved vs parent, amine-coupled for SPR, mirror-image nucleic acid, variant of NOX-D19001) is given as “binds”. As to “GCCUGAUGUGGUGGUGAAGGGUUGUUGGGUGUCGACGCACAGGC [NOX-D19001-D41]”, the binding result with human C5a (Homo sapiens) (2'-deoxy at 41, reduced or lost vs parent, 37 C, amine coupled to CM5 chip, synthetic backbone, mirror-image nucleic acid) was “binds more weakly”.

“GCCUGAUGUGGUGGUGAAGGGUUGUUGGGUGUCGACGCACAGGC [NOX-D19001-D42]”: the binding result with human C5a (Homo sapiens) (2'-deoxy at 42, improved vs parent, 37 C, amine coupled to CM5 chip, synthetic backbone, mirror-image nucleic …) was “binds”. On to “GCCUGAUGUGGUGGUGAAGGGUUGUUGGGUGUCGACGCACAGGC [NOX-D19001-D43]”, for which the binding result with human C5a (Homo sapiens) (2'-deoxy at 43, improved vs parent, 37 C, amine coupled to CM5 chip, synthetic backbone, mirror-image nucleic …) was “binds”. Regarding “GCCUGAUGUGGUGGUGAAGGGUUGUUGGGUGUCGACGCACAGGC [NOX-D19001-D44]”, in the series with human C5a (Homo sapiens) (2'-deoxy at 44, listed as unchanged, also stated as improved, 37 C, amine coupled to CM5 chip, synthetic backbone, mirror-image nucleic acid), the binding result is reported as “binds”.

The values are drawn from patent US20140350088.
